Laboratory results taken from the supplement of paper PMC5949888.
Most values lie at the floor of the assay. Slopes are relative: functional sequences can read slightly below zero.

These substances were tested on Saccharomyces cerevisiae PS128 hsf1 delta, HSF1(1-493) fusion (assay: growth estimate (transactivation domain function in HSF1 fusion, heat-shock survival) (a.u. (slope of normalised read count over time)); higher = stronger growth at 37°C, i.e. more transactivation activity). Conditions: library: random library.
Procedure: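 Random 60-nt DNA library encoding peptides of up to 20 aa, fused to the C-terminus of yeast HSF1 residues 1-493 (C-terminal TAD deleted) and expressed from the native HSF1 promoter on a CEN plasmid in hsf1-deleted S. cerevisiae PS128. Cells were selected at 37°C on -trp 5-FOA plates for 0, 2, 4, 6 and 8 days and amplicons were sequenced. Growth estimate is the slope of a robust linear fit of total-sum-normalised read counts (normalised to the first time point) over time, using at least 2 replicates. Sequences are classed functional (TAD activity) above a threshold of -0.13, set from stop-codon control sequences.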

| Substance | growth estimate |
| --- | --- |
| GHRSVAGKAVEALFDQGRGA | < -0.25 |
| GHRWYRPER | < -0.25 |
| GHSEVV | < -0.25 |
| GHSKQLSKAVVRSLTGSAPP | < -0.25 |
| GHSVRLNSTFGSSARDDAVQ | < -0.25 |
| GHSYAHTGVEYTSLYRGLNR | -0.246 |
| GIAPHIKGSLGSIQQMVRFL | < -0.25 |
| GIARWGRLWWAASRGLPP | < -0.25 |
| GIDLVILLMVSLT | < -0.25 |
| GIEGMVEEFSRSMF | < -0.25 |
| GIELIDARSPFRNVPSTPGE | < -0.25 |
| GIEPSKGNNKTLSTVI | < -0.25 |
| GIEW | < -0.25 |
| GIG | < -0.25 |
| GIGDGVNAPAVLCPPARAGF | 0.428 |
| GIGGATRYVNQFFCPTFRG | < -0.25 |
| GIGGDLHSGRRQFCPRSTPH | < -0.25 |
| GIHNTLSSQGS | -0.248 |
| GIIFR | < -0.25 |
| GIKGLRLEPAISKGPEASAD | < -0.25 |
| GIKINVPIAWGKRITVRRDC | < -0.25 |
| GIKVCWSPFQRILTNRRLLT | -0.241 |
| GILEDARACGSLPPGVVLVR | < -0.25 |
| GILFAALDSPGAELRIVTSC | < -0.25 |

| Substance | growth estimate |
| --- | --- |
| GILLSVTAECICSFRFHWQL | < -0.25 |
| GILNTVNVSPAARAWYSL | < -0.25 |
| GILSIALRSPPGPRCLKGCR | < -0.25 |
| GILYKIVSGGSGSY | < -0.25 |
| GINISASLSLHLGCHSGDNS | < -0.25 |
| GINLFKVRYMRARTCNAKPD | < -0.25 |
| GINTVTC | < -0.25 |
| GIPSRPLLREFCLASTGIHG | < -0.25 |
| GIQTLGTYALSVKAGSYVRP | < -0.25 |
| GIR | < -0.25 |
| GIRGSGDVSLARC | -0.216 |
| GIRHFGGTVYVRCMS | < -0.25 |
| GIRIQFRKGWWDLFIPCSIS | < -0.25 |
| GIRLFGSCVNIGFPKGGSGV | < -0.25 |
| GIRLTWIQSAIFADGEMRTF | < -0.25 |
| GIRVRSEGGY | < -0.25 |
| GISEGIQACPLRIGEKIGPM | < -0.25 |
| GISRPRGRR | < -0.25 |
| GITDWCELVSGRGRRLRNRA | < -0.25 |
| GIVAWSEKCSNSPPANTQER | < -0.25 |
| GIYTFMRGGRIPLHTIFPAA | < -0.25 |
| GIYVLKART | < -0.25 |
| GIYW | < -0.25 |
| GKARAAGVNSVMGPSCKRPE | < -0.25 |

An excerpt of these results, tab-delimited:
Substance	growth estimate
GHSEVV	< -0.25
GHSVRLNSTFGSSARDDAVQ	< -0.25
GHSYAHTGVEYTSLYRGLNR	-0.246
GILYKIVSGGSGSY	< -0.25
GIYVLKART	< -0.25

Next results follow.

| Substance | growth estimate |
| --- | --- |
| GKAWQRWKATGDIWPTSACL | < -0.25 |
| GKCLQFRVQVNCRGSPAGGN | < -0.25 |
| GKDDGDMLTPCR | < -0.25 |
| GKEC | < -0.25 |
| GKEDCY | < -0.25 |
| GKETHKGENRVGRVKEAGIR | < -0.25 |
| GKEWHVRHRGLAFWLPVAGP | < -0.25 |
| GKGCSYRAYYSRLYRPRRGL | < -0.25 |
| GKGDLVGL | < -0.25 |
| GKGHRGLYFASDKRRPRSSP | < -0.25 |
| GKGLPVTYVRPCNMCGD | < -0.25 |
| GKGRGTRVLVKRR | < -0.25 |
| GKGRTVM | < -0.25 |
| GKGVCFTLFRSVYESLVTQR | < -0.25 |
| GKGWFGSFRRA | < -0.25 |
| GKIHHLG | < -0.25 |
| GKKPRAYGP | < -0.25 |
| GKLSHLVGGCVERERDDRIS | < -0.25 |
| GKPPQA | < -0.25 |
| GKPQEFRYSTAHRHWG | < -0.25 |
| GKPQLNIHAHRPGCNTSDEN | < -0.25 |
| GKPRQSDLGDMS | < -0.25 |
| GKQVGRKGLHLYYTPTDRLT | -0.243 |
| GKRDTIVKHSTQYPAVGVKA | < -0.25 |

Retrieved one by one from the entries so far, three records:

| Substance | growth estimate |
| --- | --- |
| GKPQLNIHAHRPGCNTSDEN | < -0.25 |
| GKCLQFRVQVNCRGSPAGGN | < -0.25 |
| GKGDLVGL | < -0.25 |

Further results follow.

| Substance | growth estimate |
| --- | --- |
| GKSACS | < -0.25 |
| GKSEQSVC | < -0.25 |
| GKSPIVC | < -0.25 |
| GKTAWSCECKSSLRQLMSGR | < -0.25 |
| GKTLHVRRCRAALCDHFLPV | < -0.25 |
| GKVSLSRRDKLVGALRDPFV | < -0.25 |
| GKWPVYVEIDGVSVAAGAGR | < -0.25 |
| GKWSDRDTTWVGNSEGEPAK | < -0.25 |
| GLAQD | < -0.25 |
| GLATQVCPASFLGESGFVCI | 0.525 |
| GLATSSCSLTPSWYL | < -0.25 |
| GLAWPVTVGGAL | < -0.25 |
| GLAYRAHLRSSDSRKYLKRL | < -0.25 |
| GLCDYG | < -0.25 |
| GLCKHVQD | < -0.25 |
| GLCKIFVKSVKLDRNGRAGH | < -0.25 |
| GLCREKHATG | < -0.25 |
| GLDACPL | < -0.25 |
| GLDACVQWVLGYEGNHRNMR | < -0.25 |
| GLDALIGPYLGPYSPCMG | -0.199 |
| GLDSDDDNVYRCPSFCM | < -0.25 |
| GLDSYLRHRARDRTALRYGI | -0.249 |
| GLDTRTNGFRKDS | < -0.25 |
| GLEASKGKMGPTDCSVR | < -0.25 |

Part of the list above, with bars between the fields:
Substance | growth estimate
GKWPVYVEIDGVSVAAGAGR | < -0.25
GKWSDRDTTWVGNSEGEPAK | < -0.25

Continued:

| Substance | growth estimate |
| --- | --- |
| GLFNC | < -0.25 |
| GLFPNHHETSLPDPFCLGHA | < -0.25 |
| GLG | < -0.25 |
| GLGAAGPQFTRNCRKYPFRP | < -0.25 |
| GLGCARSTRDRLRRLDV | < -0.25 |
| GLGDFVPVRLVLGSNGLPLH | < -0.25 |
| GLGHVEHYIKGQGLLSVMRK | < -0.25 |
| GLGPRAGLMPHNISTDRLRQ | < -0.25 |
| GLGTNWFSVQ | < -0.25 |
| GLHQDGPVFARIGYRLLFPR | < -0.25 |
| GLHSRQFGIFLPD | < -0.25 |
| GLHWWTPIFCHNRWDLSFRE | < -0.25 |
| GLIPCRPTCRESNSAGQAAP | < -0.25 |
| GLIRVKDYARWTYLVRPWER | < -0.25 |
| GLKD | < -0.25 |
| GLKQRGSRSAGLSCHAFSLD | < -0.25 |
| GLLAPVSDRLHESVVADY | < -0.25 |
| GLLCERSML | < -0.25 |
| GLLDHEFANTVGSKWSRLRK | -0.0918 |
| GLLFGQE | < -0.25 |
| GLLIPSGLELRAL | < -0.25 |
| GLLLTW | < -0.25 |
| GLLNFAHVHLWAVHAELEYP | < -0.25 |
| GLLNVMRSGPWVGDTGLTTG | < -0.25 |

| Substance | growth estimate |
| --- | --- |
| GLLRRGKRGKGCSQRSCH | < -0.25 |
| GLLSVTPVSDCVEPWHFAVD | < -0.25 |
| GLMHGS | < -0.25 |
| GLNALGLCSTFRRKYKPLDS | < -0.25 |
| GLPGMGMGQSR | < -0.25 |
| GLPH | < -0.25 |
| GLPIQKGSGLY | < -0.25 |
| GLPISQWGTRAPVHPPLGGV | < -0.25 |
| GLPPL | < -0.25 |
| GLPPSC | < -0.25 |
| GLPVARSWGIPRPGP | < -0.25 |
| GLQGRYPMLCPILWTRSFVT | < -0.25 |
| GLQGTERNGNCVGDIPGGTS | < -0.25 |
| GLQSL | < -0.25 |
| GLQSRIRLEEVVSRNTMTSQ | < -0.25 |
| GLQSTRYSLFSRCNALSRSA | < -0.25 |
| GLRAGLVTRYFSLRSTYMSL | < -0.25 |
| GLRHPLHAD | < -0.25 |
| GLRIREHAARQVLTKSFSTL | < -0.25 |
| GLRLERLIPLAISGSTAVRA | -0.248 |
| GLRLIEHHHVLGQRAACP | < -0.25 |
| GLRRAGDEPAACEW | < -0.25 |
| GLRRRDSSRSNTRQAHPQ | < -0.25 |
| GLRSMVAKIGMDPVVTSQRG | < -0.25 |

| Substance | growth estimate |
| --- | --- |
| GLRYLWISSSSIGDPLRGFV | < -0.25 |
| GLSATRADISIRLARTDWVT | < -0.25 |
| GLSFQFSCGQCRWSLRRK | < -0.25 |
| GLSGDVVSGNKVLYHGTVNG | < -0.25 |
| GLSGLKLVSPRSPACISYPV | < -0.25 |
| GLSIWATQDNLLTNIYMRSF | -0.248 |
| GLSMDIGLIRI | < -0.25 |
| GLSMRPSETDPAIADCRSEH | < -0.25 |
| GLSMRSKSWWVDTPRPVAFC | < -0.25 |
| GLSPL | < -0.25 |
| GLSQRGAGEVRICQRISHMV | < -0.25 |
| GLSQSESNRP | < -0.25 |
| GLSRVGKKHCRLG | < -0.25 |
| GLSYTNCLA | < -0.25 |
| GLTLRFALTTENRWLGR | < -0.25 |
| GLTPNRFYWEIAAGLLGYQH | < -0.25 |
| GLVAAFWNNFLCEKGGTKIL | < -0.25 |
| GLVDGMSGNLSPLVSGSSQR | < -0.25 |
| GLVGVN | < -0.25 |
| GLVPLWSDQPGFDYSARIAT | < -0.25 |
| GLVRHTGKL | < -0.25 |
| GLWCDSTAAYGLEWKVSQSG | < -0.25 |
| GLWSTG | < -0.25 |
| GLYKDQWC | < -0.25 |

| Substance | growth estimate |
| --- | --- |
| GMAHTTIVPSRATQKVYDPN | < -0.25 |
| GMF | < -0.25 |
| GMGFFRRWDSSWYSPALLAF | < -0.25 |
| GMGLPAPRLRLLNVKSAAQG | < -0.25 |
| GMGSSTVKRVPSLQRPAKVP | < -0.25 |
| GMIDRGGVCIRRPGLTMS | < -0.25 |
| GMIMGSTLLKHVRLLYGLRD | -0.208 |
| GMISGTELSLVMHVNS | < -0.25 |
| GMKQIIRRRRGGLWPASNAA | < -0.25 |
| GMPVEDVRASSYAKFSPGRV | < -0.25 |
| GMRGTKRSL | < -0.25 |
| GMRYAIGLSVERHLG | < -0.25 |
| GMRYREPSHALDCPSCTRAT | < -0.25 |
| GMTTIRGISQMPLPRGSINA | -0.246 |
| GMYRLPDSTRALNLAAL | < -0.25 |
| GMYSLCRWIESRGYRPIFQL | < -0.25 |
| GNC | < -0.25 |
| GNCVTLVAQFYDLDLEDIDT | -0.231 |
